Test results: article PMC10354075
No constants are given. Whether binding was seen depends on the method and setting. In cells and extracts the contact can be indirect. Some entries that bind do so weakly or less than the wild type.

Protein sequences, listed by entry. Tags and fused reporters are not part of them.
UniProt P08103: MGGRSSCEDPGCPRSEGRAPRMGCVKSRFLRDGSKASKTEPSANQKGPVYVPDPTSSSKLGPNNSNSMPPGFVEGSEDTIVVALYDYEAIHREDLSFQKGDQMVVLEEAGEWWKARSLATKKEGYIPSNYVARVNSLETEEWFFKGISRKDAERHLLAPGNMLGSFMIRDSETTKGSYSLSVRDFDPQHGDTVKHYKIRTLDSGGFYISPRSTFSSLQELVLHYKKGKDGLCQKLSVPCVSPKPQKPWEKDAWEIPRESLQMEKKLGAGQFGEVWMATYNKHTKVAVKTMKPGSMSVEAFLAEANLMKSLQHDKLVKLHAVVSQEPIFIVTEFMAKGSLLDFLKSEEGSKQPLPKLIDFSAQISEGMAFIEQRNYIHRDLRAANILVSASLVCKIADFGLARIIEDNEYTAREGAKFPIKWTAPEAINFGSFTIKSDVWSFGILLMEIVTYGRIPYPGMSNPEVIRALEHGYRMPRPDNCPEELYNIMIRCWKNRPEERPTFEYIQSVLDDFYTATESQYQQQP
UniProt Q6P4T0: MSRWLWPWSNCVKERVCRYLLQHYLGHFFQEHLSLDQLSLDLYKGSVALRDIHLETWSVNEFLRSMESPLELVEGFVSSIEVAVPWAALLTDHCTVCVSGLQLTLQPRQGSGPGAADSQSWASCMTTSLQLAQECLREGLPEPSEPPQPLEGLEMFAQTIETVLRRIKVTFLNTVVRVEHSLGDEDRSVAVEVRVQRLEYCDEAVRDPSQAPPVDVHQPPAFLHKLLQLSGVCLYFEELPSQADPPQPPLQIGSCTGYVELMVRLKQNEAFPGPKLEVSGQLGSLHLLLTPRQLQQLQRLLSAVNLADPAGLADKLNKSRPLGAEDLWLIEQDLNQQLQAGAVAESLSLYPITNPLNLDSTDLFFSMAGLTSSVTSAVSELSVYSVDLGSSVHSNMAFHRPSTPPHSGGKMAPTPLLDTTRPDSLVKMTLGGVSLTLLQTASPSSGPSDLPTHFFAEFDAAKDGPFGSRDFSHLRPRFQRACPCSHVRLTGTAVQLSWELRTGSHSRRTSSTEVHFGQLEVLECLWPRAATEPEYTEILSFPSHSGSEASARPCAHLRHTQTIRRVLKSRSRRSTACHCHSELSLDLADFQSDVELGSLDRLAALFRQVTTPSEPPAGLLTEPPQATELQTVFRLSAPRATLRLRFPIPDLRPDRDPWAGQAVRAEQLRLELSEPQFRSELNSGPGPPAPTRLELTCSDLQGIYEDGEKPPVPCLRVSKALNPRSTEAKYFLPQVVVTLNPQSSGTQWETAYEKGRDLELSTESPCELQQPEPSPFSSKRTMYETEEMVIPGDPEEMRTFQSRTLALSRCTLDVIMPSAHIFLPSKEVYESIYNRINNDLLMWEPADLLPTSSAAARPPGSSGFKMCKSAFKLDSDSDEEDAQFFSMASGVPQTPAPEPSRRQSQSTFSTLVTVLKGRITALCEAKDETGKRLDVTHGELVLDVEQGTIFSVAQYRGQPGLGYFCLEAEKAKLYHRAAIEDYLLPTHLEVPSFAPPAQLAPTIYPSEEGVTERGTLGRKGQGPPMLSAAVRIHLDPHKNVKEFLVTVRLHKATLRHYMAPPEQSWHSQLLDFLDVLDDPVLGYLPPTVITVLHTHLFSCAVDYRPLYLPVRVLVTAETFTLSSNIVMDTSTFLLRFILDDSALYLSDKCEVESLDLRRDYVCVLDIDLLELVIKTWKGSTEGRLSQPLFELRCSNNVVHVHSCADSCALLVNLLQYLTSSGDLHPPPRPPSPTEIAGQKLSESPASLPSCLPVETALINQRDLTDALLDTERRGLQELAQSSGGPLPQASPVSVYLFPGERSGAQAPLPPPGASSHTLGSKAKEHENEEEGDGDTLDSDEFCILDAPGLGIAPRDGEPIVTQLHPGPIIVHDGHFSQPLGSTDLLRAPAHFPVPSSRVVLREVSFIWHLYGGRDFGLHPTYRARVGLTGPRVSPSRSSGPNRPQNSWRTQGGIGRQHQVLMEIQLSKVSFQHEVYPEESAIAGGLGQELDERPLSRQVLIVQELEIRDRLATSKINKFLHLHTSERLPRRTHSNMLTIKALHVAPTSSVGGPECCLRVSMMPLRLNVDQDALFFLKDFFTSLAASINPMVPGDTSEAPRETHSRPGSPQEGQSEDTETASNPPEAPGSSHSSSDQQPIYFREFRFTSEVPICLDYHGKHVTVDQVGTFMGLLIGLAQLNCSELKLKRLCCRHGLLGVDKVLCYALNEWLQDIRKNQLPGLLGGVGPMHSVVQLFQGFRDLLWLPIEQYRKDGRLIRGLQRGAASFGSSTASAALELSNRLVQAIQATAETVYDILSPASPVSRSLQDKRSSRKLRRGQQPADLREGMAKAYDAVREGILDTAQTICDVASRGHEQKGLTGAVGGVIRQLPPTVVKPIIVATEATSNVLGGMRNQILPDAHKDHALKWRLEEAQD

Target: endogenous HCK (RAW264.7 macrophage cells) (mouse (endogenous in RAW264.7)) (UniProt P08103)
Test: co-IP; endogenous proteins in RAW264.7 macrophage cells, IP combined with immunoblotting

Row | Substance | binding
1 | CBL (endogenous, RAW264.7 macrophage cells) (from UniProt P22682 1-913) | binds
2 | ATG2A (endogenous, RAW264.7 macrophage cells) (from UniProt Q6P4T0 1-1914) | binds
